From patent US20230218559A1, “Compositions and Methods for Treating Aging and Age-Related Diseases and Symptoms” (The Regents of the University of California, priority 2014, published 2023) come the findings set out here.

For the data set, the system named is C. elegans. In words: Oxidative stress in worms (DCF fluorescence, OxyBlot). The class given is in vivo, Caenorhabditis elegans. Particulars: 8 mM.

In the case of `O=C(O)CCC(=O)C(=O)O` [α-KG, α-ketoglutarate], the “DCF fluorescence (ROS levels)” value (1 day, HT115 and OP50 fed worms, P=0.0007 and P=0.0012) is reported as “higher”. For the setting “adult day 2 and day 3”, the “protein oxidation (OxyBlot)” value was “no significant change”.
